Results: patent US20250051443A1 (NATIONAL RESEARCH COUNCIL OF CANADA, published 2025)
No constants are given. Whether binding was seen depends on the method and setting. Some results given as binding are weak or reduced against the parent protein; the word gives no strength.

Amino acid sequences for entries named in this document (tags omitted). A change or cut given only in a name is not applied to a line headed by its entry.
UniProt Q95LI5: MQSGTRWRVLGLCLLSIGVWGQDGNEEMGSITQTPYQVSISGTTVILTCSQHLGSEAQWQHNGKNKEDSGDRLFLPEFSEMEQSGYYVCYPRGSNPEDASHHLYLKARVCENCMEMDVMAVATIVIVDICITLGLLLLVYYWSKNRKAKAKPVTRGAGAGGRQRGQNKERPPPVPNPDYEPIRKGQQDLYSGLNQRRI
UniProt P07766: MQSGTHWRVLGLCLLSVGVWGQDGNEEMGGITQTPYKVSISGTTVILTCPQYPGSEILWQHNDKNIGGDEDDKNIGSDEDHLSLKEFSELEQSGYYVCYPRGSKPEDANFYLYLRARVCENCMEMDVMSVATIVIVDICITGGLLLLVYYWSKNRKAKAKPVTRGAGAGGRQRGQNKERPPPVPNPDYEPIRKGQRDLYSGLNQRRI

Columns and labels:
[1] = biological target: T1, Cynomolgus CD3 (Cynomolgus, UniProt Q95LI5 22-198; Q95LI7 23-181; Q95LI8 22-171); test: flow cytometry titration on cynomolgus PBMCs or HSC-F T cell line
T1 construct: whole, on cells; also called CD3 on Cynomolgus PBMCs; CD3 on HSC-F Cynomolgus T cell line

[2] = biological target: T2, human CD3 (human, UniProt P07766 23-207; P09693 23-182; P04234 22-171); test: flow cytometry, hybridoma supernatant on Jurkat vs CD3-negative J.RT3-T3.5
[3] = biological target: T2, human CD3; test: flow cytometry dose-response on Jurkat cells

Binder	binding [1]	binding [2]	binding [3]
F282-2D5 (antibody, V domains shown, also called F282-2D5-2) VH: QVQLQQPGTELVKPGASVKLSCKASGYTFTSYWMHWVKQRPGQGLEWIGNINPSNGGTNYNENFKTKATLTVDKSSSTAYMQLSSLTSEDSAVYYCARDRSGQYYFDYWGQGTTLTVSS VL: DIVMSQSPSSLAVSAGEKVTMSCKSSQSLLNSRTRKNYLAWYQQKPGQSPKLLIYWASTRESGVPDRFTGSGSGTDFTLTISSVQAEDLAVYYCIQSYHLRTFGGGTILEIK	binds	binds	binds
F332-7E3 (antibody, mouse IgG2a, V domains shown, also called F332-7E3-2) VH: QVQLQQPGAELGKPGTSVKLSCKASGYTFTSYWIHWVKQRPGQGLEWIGNINPNSGSINYNEKFKSKATLTVDKSSSTAYMQLSTLTSEDFAVYYCTRDTSGQYYFDYWGQGTTLTVSS VL: DIVMSQSPSSLAVSAGEKVTMSCKSSQSLLNSRTRKNYLAWYQQKPGQSPKLLIYWASTRESGVPDRFTGSGSGTDFTLTISSVQAEDLAVYYCKQSYHLRTFGGGTKLEIK	binds	–	binds
F332-5D4 (antibody, mouse IgG2b, V domains shown, also called F332-5D4-2; F332-5D4 (5F8)) VH: QVQLQQPGAELGKPGTSVKLSCKASGYTFTSYWMHWVKQRPGQGLEWIGNINPNGGDSNYNEKFKSKATLTVDMSSSTAYMQLSTLTSEDSAVYYCTRDISGQYYFDFWGQGTSLTVFS VL: DILMSQSPSSLAVSAGEQVTMSCKSSQSLLNSRTRKNYLAWYQQKPGQSPKLLIFWASTRKSGVPDRFTGSGSGTYFTLTINSVQTEDLAVYYCTQSYSLRTFGGGTKLEIK	binds	–	binds
F332-4D6 (antibody, mouse IgG2a, V domains shown, also called F332-4D6-2; F322-4D6) VH: QVQLQQSGAELGKPGTSVKLSCKASGYTFTSYWIHWVKQRPGQGLEWIGNINPNSGSTNYNEKFKRKATLTADKSSSTAYMQLSTLTSEDFAVYYCTRDTSGQYYFDYWGQGTTLTVSS VL: DIVMSQSPSSLAVSAGEKVTMSCKSSQSLLNSRTRKNYLAWYQQKPGQSPKVLIYWASTRESGVPDRFTGSGSGTDFTLTISSVQAEDLAVYYCKQSYHLRTFGGGTKLEIK	binds	–	binds
F332-1E2 (antibody, mouse IgG2a, V domains shown, Sister clone 8C5 shares the same entries; also called F332-1E2-2; F332-1E2 (8C5)) VH: QVQLQQPGAELGKPGTSVKLSCKASGYTFTSYWIHWVKQRPGQGLEWVGNINPNSGSINYNEKFKNKATLTVDKSSSTAYMQLSTLTSEDFAVYYCTRDTSGQYYFDYWGQGTTLTVSS VL: DIVMSQSPSSLAVSAGERVTMSCKSSQSLLNSRTRKNYLAWYQQKPGQSPKLLIYWASTRESGVPDRFTGSGSGTDFTLTISSVQAEDLAVYYCIQSYHLRTFGGGTKLEIK	binds	binds	binds
F332-1C9 (antibody, mouse IgG2a, V domains shown, Sister clones 1A10, 5H8, 8B11 share the same entries; also called F332-1C9-2; F332-1C9 (1A10, 5H8, 8B11)) VH: QVQLQQPGAELGKPGTSVNLSCKASGYTFTSYWMHWVKQRPGQGLDWIGNINPNSGTTNYNEKFKSKATLTVDKSSSTAYMQLSTLTSEDSAVYYCTRDISGQYYFDYWGQGTSLTVSS VL: DIVMSQSPSSLAVSAGEKVTMSCKSSQSLLNSRTRKNYLAWYQQKPGQSPKLLIYWASTRESGVPDRFTGSGSGTDFTLIISSVQAEDLAVYYCKQSYSLRTFGGGTKLEIK	binds	–	binds
F332-3E9 (antibody, mouse IgG2a, V domains shown, also called F332-3E9-2; F332-3E9 (12G4)) VH: QVQLQQPGAELGKPGTSVKLSCKASGYTFTSYWIHWLKQRPGQGLEWIGNINPNGGSINCNEKFTTKATLTIDKSSSTAYMQLSTLTSEDFAVYYCTRDTSGQYYFDYWGQGTTLTVSS VL: DIMMSQSPSSLAVSAGEKVTMSCKSSQSLLNSRTRKNYLAWYQQKPGQSPKLLIYWASTRESGVPDRFTGSGSGTDFTLTISSVQAEDLAVYYCTQSYHLRTFGGGTKLEIK	binds	–	binds
F332-5F2 (antibody, mouse IgG2b, V domains shown, also called F332-5F2-2; F332-5F2 (6G8, 13A3)) VH: QVQLQQPGAELGKPGTSVKLSCKASGYTFTSYWMHWVKQRPGQGLEWIGNINPNGGDSNYNEKFKSKATLTVDKSSSTAYMQLSTLTSEDSAVYYCTRDISGQYYFDFWGQGTSLTVFS VL: DILMSQSPSSLAVSAGEQVTMSCKSSQSLLNSRTRKNYLAWYQQKPGQSPKLLIFWASTRKSGVPDRFTGSGSGTYFTLTISSVQAEDLAVYYCTQSYNLRTFGGGTKLEIK	binds	–	binds

Other lines, results leading:

binding [1]	binding [2]	binding [3]	Binder
binds	–	binds	F332-13B4 (antibody, mouse IgG2a, V domains shown, also called F332-13B4-2) VH: QVQLQQSGPELVKPGASVKISCKASGYSFTNSYVHWVKQTPGQGLEWIGWIYPGSTNIKYNEKFKGKATLTADTSSSTVYMQLSSLTSEDSAVYFCARDGSYFFDYWGQGTTLTVSS VL: DIVMSQSPSSLAVSAGEKVTMTCKSSQSLLNSRTRKNYLAWYQQKPGQSPKLLIYWASTRESGVPDRFTGSGSGTDFTLTISSVQAEDLAVYYCKQSYILRTFGGGTKLEIK
binds	binds	binds	F332-7C5 (antibody, mouse IgG2a, V domains shown, also called F332-7C5-2; F332-7C5 (5E12, 10A8)) VH: QVQLQQPGAELGKPGTSVKLSCKASGYTFTSYWMHWVKQRPGQGLEWIGNINPSSGITNYNERFKNKATLTVDKSSTTAYMQLSILTSEDSAVYYCSRDISGQYYFNFWGQGTTLTVSS VL: DIVMSQSPSSLAVSAGEKVTMSCKSSQSLLNSRTRKNYLAWYQQKPGQSPKLLIYWASTRESGVPDRFTGTGSGTDFTLTISSVQAEDLAVYYCKQSYNLRTFGGGTKLEIK
–	–	binds	F332-10B6 (antibody, mouse IgG2a, V domains shown, also called F332-10B6-2; F332-12B5-1) VH: QVQLQQPGAELGKPGTSVNLSCKASGYTFTDYWIHWVKQRPGQGLEWIGNINPNSGDTNYNENFKTKATLTVDRSSSTAYMQLSSLTSEDSAVYYCTRDISGQYYFDFWGQGTTLTVSS VL: DIVMSQSPSSLAVSAGEKVTMSCKSSQSLLNSRTRKNYLAWYQQKPGQSPKLLIYWASTRESGVPDRFTGSGSGTDFTLTISSVQAEDLAVYYCIQSYNLRTFGGGTKLEIK
binds	–	binds	F332-7C9 (antibody, mouse IgG2a, V domains shown, also called F332-7C9-2; F332-7C9 (5C7, 7D10)) VH: QVQLQQSGPELVKPGASVRISCKASGYTFTSHYLHWVKQRPGQGFEWIGWIYPGDGNTRYNEKFKDRATLTADKSSSTAYLHLSSLTSEDSAVYFCARDAGYYFDYWGQGTTLAVSS VL: DIVMSQSPSSLAVSAGEKVTMSCKSSQSLLNSRTRKNYLAWYQQKPGQSLKVLIYWASTRESGVPDRFTGSGSGTDFTLTISSVQAEDLAVYYCKQSYSLRTFGGGTKLEIK
binds	–	binds	F332-8F7 (antibody, mouse IgG2a, V domains shown, also called F332-8F7-3) VH: QVQLQQPGAELGKPGTSVKLSCKASGYTFTSYWIHWVKQRPGQGLEWIGNINPNSGSTNYNEKFKNKATLTVDKSSSTASMQLSTLTSEDSAVYYCTRDISGQYYFDYWGQGTTLTVSS VL: DIVMSQSPSSLAVSTGGEVTMSCKSSQSLLNSRTRKNYLAWYQQKPGQSPKLLIYWASTRESGVPDRFTGSGSGTDFTLTISSVQAEDLAVYYCIQSYSLRTFGGGTKLGIK
binds	–	binds	F332-6D7 (antibody, mouse IgG2a, V domains shown, also called F332-6D7-2; F332-6D7 (7G4)) VH: QVQLQQPGAELGKPGTSVNLSCKASGYTFTSYWMHWVKQRPGQGLDWIGNINPNSGTTNYNEKFKSKATLTVDKSSSTAYMQLSTLTSEDSAVYYCTRDISGQYYFDYWGQGTSLTVSS VL: DIVMSQSPSSLAVSAGEKVTMSCKSSQSLLNSRTRKNYLAWYQQKPGQSPKLLIYWASTRESGVPDRFTGSGSGTDFTLTISSVQAEDLAVYYCKQSYSLRTFGGGSKLEIK
binds	–	binds	F332-7B7 (antibody, mouse IgG2a, V domains shown, also called F332-7B7-2) VH: QVQLQQPGTELGKPGTSVKLSCKASGYTFTNYWMHWVKQRPGQGLEWIGNINPNSGSTNYNQKFKSKATLTLDKSSSTAYMQFSTLTSEDSAVYYCTRDSSGQYYFDYWGQGTTLTVSS VL: DIVMSQSPSSLAVSAGEKVTMSCKSSQSLLNSRTRKNYLAWYQQKPGQSPKLLIYWASTRESGVPDRFTGSGSGTDFTLTISSVQAEDLAVYYCIQSFHLRTFGGGTKLEIK
binds	binds	binds	F332-12F6 (antibody, mouse IgG2a, V domains shown, also called F332-12F6-2) VH: QVQLQQPGAELGKPGTSVKLSCKASGYTFTSYWIHWVKQRPGQGLEWIGNINPNSGSTNYNEKFKSKATLTVDKSSSTAYMQLSTLTSEDSAVYYCTRDISGQYYFDYWGQGTTLTVSS VL: DIVMSQSPSSLAVSAGEKVTMSCKSSQSLLNSRTRKSYLAWYQQKPGQSPKLLIYWASTRESGVPDRFTGSGSGTDFTLTISSVQAEDLAVYYCIQSYNLRTFGGGTKLEIK
